One molecule from patent US20100272737A1 (AGENCY FOR SCIENCE TECHNOLOGY AND RESEARCH, published 2010) can be followed below.

These are yes or no findings as the source states them, for the method shown. In cells and extracts the contact can be indirect. Some results given as binding are weak or reduced against the parent protein; the word gives no strength.

In the assay the target is T1, Flag-tagged Cavβ3-subunit (rat, UniProt P54287 1-484).
T1 construct: whole, on cells; Flag-tagged in co-immunoprecipitation, pull-down and immunofluorescence; also called Flag-Cavβ3; N-Flag Cavβ3-subunits
Briefly: co-precipitation.

As to RSPRAWPRRPRRDYSIDEKTDALFHEFLRHDPHFDDAPR [isolated BARP domain II], the binding entry is on record as “binds”.
